# The supplement of paper PMC8728848
# The list shows a part of the results.
# B1: Actd5 (Actinidia), P84527 (protein)
# chain: ISSCNGPCRDLNDCDGQLICIKGKCNDDPQVGTHICRGTTHSHQPGGCKPSGTLTCRGKSYPTYDCSPPVTSSTPAKLTNNDFSEGGDDGGPSECDESYHNNNERIVALSTGWYNGGSRCGKMIRITASNGKSVSAKVVDECDSRHGCDKEHAGQPPCRNNIVDGSNAVWSALGLDKNVGVVDITWSMA
# How the values were obtained:
# Assay in all cases: glycan array binding signal (z-score within array); higher = stronger binding
# Details in all cases: glycan notation: IUPAC condensed, linker removed
# Gal6S(b1-4)Glc = target: Gal6S(b1-4)Glc
# Summary of the method: (§1)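 Glycan array binding is given as a within-array Z-score, which can be read as non-binding when negative. The arrays, 3228 of them, came from the Consortium for Functional Glycomics database and were retained only where the protein sequence was available. Z-scores were averaged across arrays of the same protein sequence at different concentrations or buffers and across linkers.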
# Gal6S(b1-4)Glc6S = target: Gal6S(b1-4)Glc6S
# Summary of the method: as §1
# Gal6S(b1-4)GlcNAc = target: Gal6S(b1-4)GlcNAc
# Summary of the method: as §1
# Gal6S(b1-4)GlcNAc6S = target: Gal6S(b1-4)GlcNAc6S
# Summary of the method: as §1
# GalNAc(a1-3)Gal = target: GalNAc(a1-3)Gal
# Summary of the method: as §1
# GalNAc(a1-3)GalNAc = target: GalNAc(a1-3)GalNAc
# Summary of the method: as §1
# [1] = target: GalNAc(a1-3)GalNAc(b1-3)Gal(a1-4)Gal(b1-4)Glc
# Summary of the method: as §1
# [2] = target: GalNAc(a1-3)GalNAc(b1-3)Gal(a1-4)Gal(b1-4)GlcNAc
# Summary of the method: as §1
# GalNAc(b1-3)Gal = target: GalNAc(b1-3)Gal
# Summary of the method: as §1
# [3] = target: GalNAc(b1-3)Gal(a1-4)Gal(b1-4)GlcNAc
# Summary of the method: as §1
# [4] = target: GalNAc(b1-3)Gal(a1-4)Gal(b1-4)GlcNAc(b1-3)Gal(b1-4)Glc
# Summary of the method: as §1
# [5] = target: GalNAc(b1-3)Gal(a1-6)Gal(b1-4)Glc
# Summary of the method: as §1
# GalNAc(b1-3)GalNAc = target: GalNAc(b1-3)GalNAc
# Summary of the method: as §1
# GalNAc(b1-3)GlcNAc = target: GalNAc(b1-3)GlcNAc
# Summary of the method: as §1
# GalNAc(b1-4)Gal(b1-4)Glc = target: GalNAc(b1-4)Gal(b1-4)Glc
# Summary of the method: as §1
# GalNAc(b1-4)GlcNAc = target: GalNAc(b1-4)GlcNAc
# Summary of the method: as §1
# [6] = target: GalNAc(b1-4)GlcNAc(b1-2)Man
# Summary of the method: as §1
# [7] = target: GalNAc(b1-4)GlcNAc(b1-2)Man(a1-3)[GalNAc(b1-4)GlcNAc(b1-2)Man(a1-6)]Man(b1-4)GlcNAc(b1-4)GlcNAc
# Summary of the method: as §1
# [8] = target: GalNAc(b1-4)GlcNAc(b1-3)GalNAc(b1-4)GlcNAc
# Summary of the method: as §1
# GalNAc(b1-4)GlcNAc6S = target: GalNAc(b1-4)GlcNAc6S
# Summary of the method: as §1
# GalNAc(b1-6)GalNAc = target: GalNAc(b1-6)GalNAc
# Summary of the method: as §1
# GalNAc3S(b1-4)GlcNAc = target: GalNAc3S(b1-4)GlcNAc
# Summary of the method: as §1
# GalNAc3S(b1-4)GlcNAc3S = target: GalNAc3S(b1-4)GlcNAc3S
# Summary of the method: as §1
# [9] = target: GalNAc3S(b1-4)[Fuc(a1-3)]GlcNAc
# Summary of the method: as §1
# GalNAc4S6S(b1-4)GlcNAc = target: GalNAc4S6S(b1-4)GlcNAc
# Summary of the method: as §1
# GalNAc6S(b1-4)GlcNAc = target: GalNAc6S(b1-4)GlcNAc
# Summary of the method: as §1
# Glc(a1-4)Glc = target: Glc(a1-4)Glc
# Summary of the method: as §1
# [10] = target: Glc(a1-4)Glc(a1-4)Glc(a1-4)Glc
# Summary of the method: as §1
# Glc(a1-6)Glc(a1-6)Glc = target: Glc(a1-6)Glc(a1-6)Glc
# Summary of the method: as §1
# [11] = target: Glc(a1-6)Glc(a1-6)Glc(a1-6)Glc
# Summary of the method: as §1
# Glc(b1-4)Glc = target: Glc(b1-4)Glc
# Summary of the method: as §1
# Glc(b1-6)Glc = target: Glc(b1-6)Glc
# Summary of the method: as §1
# GlcA(b1-3)Gal = target: GlcA(b1-3)Gal
# Summary of the method: as §1
# GlcA(b1-3)GlcNAc = target: GlcA(b1-3)GlcNAc
# Summary of the method: as §1
# GlcA(b1-6)Gal = target: GlcA(b1-6)Gal
# Summary of the method: as §1
# [12] = target: GlcA3S(b1-3)Gal(b1-4)GlcNAc(b1-2)Man
# Summary of the method: as §1
# [13] = target: GlcA3S(b1-3)Gal(b1-4)GlcNAc(b1-3)Gal(b1-4)Glc
# Summary of the method: as §1
# [14] = target: GlcNAc(a1-3)Gal(b1-4)GlcNAc
# Summary of the method: as §1
# [15] = target: GlcNAc(a1-4)Gal(b1-3)GlcNAc
# Summary of the method: as §1
# [16] = target: GlcNAc(a1-4)Gal(b1-4)GalNAc
# Summary of the method: as §1
# [17] = target: GlcNAc(a1-4)Gal(b1-4)GlcNAc
# Summary of the method: as §1
# [18] = target: GlcNAc(a1-4)Gal(b1-4)GlcNAc(b1-3)Gal(b1-4)Glc
# Summary of the method: as §1
# [19] = target: GlcNAc(a1-4)Gal(b1-4)GlcNAc(b1-3)Gal(b1-4)GlcNAc
# Summary of the method: as §1
# [20] = target: GlcNAc(a1-4)Gal(b1-4)GlcNAc(b1-3)Gal(b1-4)GlcNAc(b1-3)Gal(b1-4)GlcNAc
# Summary of the method: as §1
# [21] = target: GlcNAc(a1-4)Gal(b1-4)GlcNAc(b1-3)Gal(b1-4)[Fuc(a1-3)]GlcNAc(b1-3)Gal(b1-4)[Fuc(a1-3)]GlcNAc
# Summary of the method: as §1
binder,measurement,setting,value
B1,glycan array binding signal (z-score),Gal6S(b1-4)Glc,-0.649
same,glycan array binding signal (z-score),Gal6S(b1-4)Glc6S,-0.703
same,glycan array binding signal (z-score),Gal6S(b1-4)GlcNAc,-1.08
same,glycan array binding signal (z-score),Gal6S(b1-4)GlcNAc6S,-0.506
same,glycan array binding signal (z-score),GalNAc(a1-3)Gal,-1.15
same,glycan array binding signal (z-score),GalNAc(a1-3)GalNAc,-0.951
same,glycan array binding signal (z-score),[1],-0.805
same,glycan array binding signal (z-score),[2],-0.148
same,glycan array binding signal (z-score),GalNAc(b1-3)Gal,0.368
same,glycan array binding signal (z-score),[3],0.341
same,glycan array binding signal (z-score),[4],-0.181
same,glycan array binding signal (z-score),[5],-0.63
same,glycan array binding signal (z-score),GalNAc(b1-3)GalNAc,-0.923
same,glycan array binding signal (z-score),GalNAc(b1-3)GlcNAc,-0.78
same,glycan array binding signal (z-score),GalNAc(b1-4)Gal(b1-4)Glc,-0.246
same,glycan array binding signal (z-score),GalNAc(b1-4)GlcNAc,0.427
same,glycan array binding signal (z-score),[6],-0.975
same,glycan array binding signal (z-score),[7],1.76
same,glycan array binding signal (z-score),[8],0.076
same,glycan array binding signal (z-score),GalNAc(b1-4)GlcNAc6S,-0.111
same,glycan array binding signal (z-score),GalNAc(b1-6)GalNAc,0.065
same,glycan array binding signal (z-score),GalNAc3S(b1-4)GlcNAc,-0.085
same,glycan array binding signal (z-score),GalNAc3S(b1-4)GlcNAc3S,-0.552
same,glycan array binding signal (z-score),[9],-1.15
same,glycan array binding signal (z-score),GalNAc4S6S(b1-4)GlcNAc,-0.058
same,glycan array binding signal (z-score),GalNAc6S(b1-4)GlcNAc,-1.58
same,glycan array binding signal (z-score),Glc(a1-4)Glc,0.452
same,glycan array binding signal (z-score),[10],-0.179
same,glycan array binding signal (z-score),Glc(a1-6)Glc(a1-6)Glc,0.034
same,glycan array binding signal (z-score),[11],-0.072
same,glycan array binding signal (z-score),Glc(b1-4)Glc,-0.612
same,glycan array binding signal (z-score),Glc(b1-6)Glc,-0.856
same,glycan array binding signal (z-score),GlcA(b1-3)Gal,-0.66
same,glycan array binding signal (z-score),GlcA(b1-3)GlcNAc,-1.11
same,glycan array binding signal (z-score),GlcA(b1-6)Gal,-0.202
same,glycan array binding signal (z-score),[12],-0.597
same,glycan array binding signal (z-score),[13],-0.788
same,glycan array binding signal (z-score),[14],-0.071
same,glycan array binding signal (z-score),[15],-0.928
same,glycan array binding signal (z-score),[16],-0.555
same,glycan array binding signal (z-score),[17],-0.292
same,glycan array binding signal (z-score),[18],-0.725
same,glycan array binding signal (z-score),[19],-0.087
same,glycan array binding signal (z-score),[20],-0.443
same,glycan array binding signal (z-score),[21],0.242

# 3 entries from above, set out differently.
binder	measurement	setting	value
B1	glycan array binding signal (z-score)	GlcA(b1-3)Gal	-0.66
same	glycan array binding signal (z-score)	GlcA(b1-3)GlcNAc	-1.11
same	glycan array binding signal (z-score)	GlcA(b1-6)Gal	-0.202
